Laboratory results: PubChem BioAssay AID1347426 (Functional Genomics Laboratory (NCATS/FGL), 2020)
About 1,400 (4.5%) of roughly 31,000 sequences were called active.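 The calls were made as follows: active = median seed-adjusted z-score above 1 or below -1; inactive = the rest.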 This is one part of the list.

Test: Novel Modifiers of Survival Motor Neuron (SMN) Protein: Gene Identification via Genome-wide siRNA Screen;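 also: luminescence tracks full-length SMN protein made from the SMN2 reporter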
Settings: HEK293T SMN2-luciferase reporter, siRNA knockdown, 72 h; actives lie on both sides
Procedure, shortened: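 Luciferase signal, proportional to full-length SMN made from an SMN2 cDNA reporter in stable HEK293T cells, was read 72 h after siRNA reverse transfection. Values were expressed as MAD scores after non-targeting-control normalization and log10 conversion; seed analysis flagged off-targets.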

Sequence | median seed-adjusted z-score
GGAUUCAUCCGGUCCAGAUTT against PEX5L | inactive: 0.0982
CAUUGGUGCUAGUAUCCUUTT against ACCN1 | inactive: -0.325
GAUUGUCUCUUUAGUGGAATT against TGDS | inactive: -0.196
GGCUAAAUCAGAACUCGAATT against UNG | inactive: 0.259
GGAAAUGCUGGUAAAGUAATT against PLAGL1 | inactive: 0.0885
GCAUUUCAUGGUGAACAAATT against ZNF134 | inactive: -0.0978
GUAUGUCUGUGAUAAGUUUTT against DPF1 | inactive: 0.144
GGACAUCACUGGAGAGGAATT against RNPEP | inactive: -0.236
GGAGGUCUCUUGAACCGAUTT against MARS2 | inactive: -0.00523
CUUCUGUUCGCUGCAAAAUTT against FOXD4L2 | inactive: -0.118
CAAUAAAAGCCUUUCGUUUTT against CLDN3 | inactive: -0.0833
CAUCCAACCUUCUUCCACATT against PCCB | inactive: 0.137
GGAAAUCAUUGACUAGCAUTT against MTA3 | inactive: 0.342
GGUGUAUUCUUUCUCGAUATT against UBE2E1 | inactive: 0.888
GAACAGGAGCAACUACUAATT against GBP1 | inactive: -0.232
CUACAGAUGCUACAGCUCATT against LILRA2 | inactive: -0.103
GCAGUUCUGAUCAACAAUATT against LARS2 | inactive: 0.25
GAGUCUACCCAACAGCUUATT against AGT | inactive: -0.121
CCACGUGAUAAAUCAAGAATT against PRPF4B | active: -2.29
CAUGGAGCACUAUAACCAATT against CACNA1H | inactive: -0.147
GAGCUCUCCCGAGAAGAUGTT against FOXB1 | inactive: 0.223
GAAAUAAGGUUUUUGCAAATT against CCL25 | inactive: 0.0698
CUAUAACUGUUCGUGCUUATT against USP47 | inactive: 0.3
GGAGCUGAACCGCUACUACTT against PYY | inactive: 0.437
UGGAGUUGAUCGUUACUAUTT against NDUFA1 | inactive: 0.182
GAUUACUCUUUGGAUAUAATT against TC2N | inactive: 0.461
GAGAAUAUCUGUUCUUUAATT against MMP10 | inactive: 0.902

Sequence | median seed-adjusted z-score
CAGUCACCACUAUCUCUGATT against LRRC4 | inactive: 0.255
CAGACGAGAGUGAAACUGATT against JARID1C | inactive: 0.372
CCAGCUUGCUUGUGUAUAATT against PPP1R14A | inactive: 0.0124
UGAUUUGUUUCAUUGUUAATT against NFKBIB | inactive: 0.00673
ACUCCAACCGUACCCUUUATT against PPT2 | inactive: 0.0334
GGCCUUAUAUGACCACCUATT against C1QBP | inactive: 0.754
CAGCGAAGCUUGGAAGCCATT against GPN2 | inactive: 0
GGUCCACAAUGUAUGGUUUTT against HSPB2 | inactive: 0.247
ACAUCCGAGUUUAUCCUGATT against SFRS9 | inactive: -0.144
GAAAAUUCAACGAACCAAATT against ACSM2B | inactive: -0.0401
GCUCCUACCUGGUAGACGATT against KCNJ9 | inactive: -0.0832
GGCCCUAACUCACAACCAATT against MAGI1 | inactive: 0
GAACAGCACCUUGUAUUCUTT against CREBL1 | inactive: -0.348
CUUGGAAGCUCUUACGUGATT against RARRES1 | inactive: -0.329
CCCUGUUAUUAGCAGCCCATT against GCKR | inactive: 0.454
ACAAGGAGGUGUCUACCAATT against KRT13 | inactive: 0.101
GCAACACCAUGUCCUUGUUTT against GRHPR | inactive: 0.475
AGCCCAACAAGCUUCGAAATT against GRB7 | inactive: 0.439
GCUAAUCCUCGAUACAAGATT against CASP7 | inactive: 0.213
CGAUUCGAGAAAUCAUUAATT against TFB1M | inactive: 0.172
GAAAUUCCAUGUCAUUGUATT against EIF2B2 | inactive: -0.325
GCAGAGAAAAUAUAACUGATT against NPHP1 | inactive: -0.0667
GGACGAGAUUUCUAUAAGATT against DNAJB11 | inactive: -0.0495
GAAUAUAUCUAAAUCGCAUTT against RORA | inactive: -0.144
CUAUGGUAAUGAUCGAUUUTT against GRIK2 | inactive: 0.00242
GACUUUACUCUGACUAUAATT against MCOLN3 | inactive: -0.09

3 records drawn at random from the list so far:
Sequence | median seed-adjusted z-score
GAACAGCACCUUGUAUUCUTT against CREBL1 | inactive: -0.348
ACAUCCGAGUUUAUCCUGATT against SFRS9 | inactive: -0.144
CUUGGAAGCUCUUACGUGATT against RARRES1 | inactive: -0.329
